PubChem BioAssay AID602196 – INSERM – 2012
Test: 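Genes whose knock-down alters cisplatin killing of lung cancer cells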. System: human A549 lung cancer cells. Knock-down reagent: siRNA pair against human genes. Timing: 48 h transfection before cisplatin; time from cisplatin to read-out not stated. Challenge: cisplatin at a dose killing half of control-siRNA cells; exact dose and duration not given. Measurement: 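Cisplatin cell death as a shift from the 50% death seen with control siRNA; siRNAs toxic or growth-blocking alone scored 0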. Scale: two-siRNA summed score (-2 to +2): higher = both siRNAs protect from cisplatin killing; -2 means both sensitise; mean protection from cisplatin (shift in death): higher = protection from cisplatin killing. Rule for the call: 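siRNAs harmful alone (LDH or WST-1) get 0; others get +1 for less and -1 for more cisplatin killing; genes are active when the two siRNAs give the same sign, summing to ±2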. Meaning of the calls: active = both siRNAs shift cisplatin killing the same way; inactive = no consistent shift, or siRNA harmful alone.
The deposit covers about 23,000 reagents; this is a part drawn at random. In the full data, 455 (2%) got an active call. 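Active includes both protection and sensitisation; some change values fall well beyond the stated -50 to +50 range.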 Not all columns of the deposit are shown. The record does not give: the amount of reagent.

SLC32A1 → two-siRNA summed score (-2 to +2) = 0; mean protection from cisplatin (shift in death) (%) = 4.3; activity call = inactive
OR5B17 → two-siRNA summed score (-2 to +2) = 0; mean protection from cisplatin (shift in death) (%) = 1.8; activity call = inactive
TXNDC17 → two-siRNA summed score (-2 to +2) = 1; mean protection from cisplatin (shift in death) (%) = 10.9; activity call = inactive
KCNK2 → two-siRNA summed score (-2 to +2) = 0; mean protection from cisplatin (shift in death) (%) = -5.8; activity call = inactive
AREL1 → two-siRNA summed score (-2 to +2) = -1; mean protection from cisplatin (shift in death) (%) = -4.1; activity call = inactive
GEMIN2 → two-siRNA summed score (-2 to +2) = -1; mean protection from cisplatin (shift in death) (%) = -11.4; activity call = inactive
LOC440995 → two-siRNA summed score (-2 to +2) = 0; mean protection from cisplatin (shift in death) (%) = 44.3; activity call = inactive
JUNB → two-siRNA summed score (-2 to +2) = -1; mean protection from cisplatin (shift in death) (%) = -5.6; activity call = inactive
DMBX1 → two-siRNA summed score (-2 to +2) = 0; mean protection from cisplatin (shift in death) (%) = 2; activity call = inactive
VXN → two-siRNA summed score (-2 to +2) = 0; mean protection from cisplatin (shift in death) (%) = -7.1; activity call = inactive
MFSD2A → two-siRNA summed score (-2 to +2) = 0; mean protection from cisplatin (shift in death) (%) = 11.7; activity call = inactive
TFCP2 → two-siRNA summed score (-2 to +2) = 0; mean protection from cisplatin (shift in death) (%) = 2.5; activity call = inactive
CAPRIN1 → two-siRNA summed score (-2 to +2) = 0; mean protection from cisplatin (shift in death) (%) = -2; activity call = inactive
KCNT2 → two-siRNA summed score (-2 to +2) = 0; mean protection from cisplatin (shift in death) (%) = -4.4; activity call = inactive
ADCY7 → two-siRNA summed score (-2 to +2) = 0; mean protection from cisplatin (shift in death) (%) = -4.1; activity call = inactive
LOC440079 → two-siRNA summed score (-2 to +2) = 0; mean protection from cisplatin (shift in death) (%) = -3.7; activity call = inactive
CCDC34 → two-siRNA summed score (-2 to +2) = 0; mean protection from cisplatin (shift in death) (%) = -3.2; activity call = inactive
TNFRSF12A → two-siRNA summed score (-2 to +2) = 0; mean protection from cisplatin (shift in death) (%) = -1.6; activity call = inactive
DNAJC27 → two-siRNA summed score (-2 to +2) = 0; mean protection from cisplatin (shift in death) (%) = 10.3; activity call = inactive
C5orf15 → two-siRNA summed score (-2 to +2) = 1; mean protection from cisplatin (shift in death) (%) = 13.9; activity call = inactive
GSTK1 → two-siRNA summed score (-2 to +2) = 0; mean protection from cisplatin (shift in death) (%) = 3.2; activity call = inactive
RAB3GAP2 → two-siRNA summed score (-2 to +2) = 0; mean protection from cisplatin (shift in death) (%) = -4.8; activity call = inactive
LOC388022 (retired record) → two-siRNA summed score (-2 to +2) = 0; mean protection from cisplatin (shift in death) (%) = -0.7; activity call = inactive
LOC392791 → two-siRNA summed score (-2 to +2) = 0; mean protection from cisplatin (shift in death) (%) = -8.8; activity call = inactive
CSTL1 → two-siRNA summed score (-2 to +2) = 1; mean protection from cisplatin (shift in death) (%) = 4.8; activity call = inactive
LOC441842 → two-siRNA summed score (-2 to +2) = 1; mean protection from cisplatin (shift in death) (%) = 14.2; activity call = inactive
CCK → two-siRNA summed score (-2 to +2) = 1; mean protection from cisplatin (shift in death) (%) = 2.2; activity call = inactive
OTP → two-siRNA summed score (-2 to +2) = 0; mean protection from cisplatin (shift in death) (%) = 7.2; activity call = inactive
PIK3CB → two-siRNA summed score (-2 to +2) = 0; mean protection from cisplatin (shift in death) (%) = -12.6; activity call = inactive
LOC153441 → two-siRNA summed score (-2 to +2) = 0; mean protection from cisplatin (shift in death) (%) = 4.2; activity call = inactive
LOC440543 → two-siRNA summed score (-2 to +2) = 1; mean protection from cisplatin (shift in death) (%) = 5.3; activity call = inactive

3 successive reagents from above, quoted:
VXN → two-siRNA summed score (-2 to +2) = 0; mean protection from cisplatin (shift in death) (%) = -7.1; activity call = inactive
MFSD2A → two-siRNA summed score (-2 to +2) = 0; mean protection from cisplatin (shift in death) (%) = 11.7; activity call = inactive
TFCP2 → two-siRNA summed score (-2 to +2) = 0; mean protection from cisplatin (shift in death) (%) = 2.5; activity call = inactive
